The results in this text go back to paper PMC6925144, “A prospective compound screening contest identified broader inhibitors for Sirtuin 1” (Scientific Reports, 2019).

Sequences of proteins named here, by UniProt entry; tags and fusion partners are left off. Residues count along the entry.
UniProt Q96EB6, 2-747 limits assumed: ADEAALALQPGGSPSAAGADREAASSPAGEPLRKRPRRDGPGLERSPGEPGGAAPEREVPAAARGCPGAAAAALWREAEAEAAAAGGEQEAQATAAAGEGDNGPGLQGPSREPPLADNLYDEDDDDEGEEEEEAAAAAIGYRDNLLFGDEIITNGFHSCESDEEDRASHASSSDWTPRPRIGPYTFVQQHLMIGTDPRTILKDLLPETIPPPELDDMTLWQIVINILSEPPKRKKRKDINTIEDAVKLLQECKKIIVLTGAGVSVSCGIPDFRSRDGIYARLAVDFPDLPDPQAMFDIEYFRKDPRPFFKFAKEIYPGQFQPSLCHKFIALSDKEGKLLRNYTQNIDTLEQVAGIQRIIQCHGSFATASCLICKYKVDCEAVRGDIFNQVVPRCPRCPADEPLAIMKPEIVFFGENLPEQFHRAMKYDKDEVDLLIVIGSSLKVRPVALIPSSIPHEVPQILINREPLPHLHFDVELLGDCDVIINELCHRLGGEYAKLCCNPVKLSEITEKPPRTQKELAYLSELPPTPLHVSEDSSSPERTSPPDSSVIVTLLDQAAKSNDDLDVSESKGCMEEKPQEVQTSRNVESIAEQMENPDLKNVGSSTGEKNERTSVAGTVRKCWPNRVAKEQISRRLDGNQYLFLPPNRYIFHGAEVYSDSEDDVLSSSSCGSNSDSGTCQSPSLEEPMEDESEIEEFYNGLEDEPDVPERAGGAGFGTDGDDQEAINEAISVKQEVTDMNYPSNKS

Whole data set: some 3,200 compounds, median “TSA(with NAD+) / Primary screening (TSA) / delta Tm (K)” near -0.04, cut for the highest 2% near 0.37. The list shows a part of the results.

The target of the assay is NAD-dependent deacetylase Sirtuin 1 (human, UniProt Q96EB6). Kind of assay: primary screen, delta tm. On the set-up: single well (n = 1, as 'the same TSA'). The conditions noted are these: 10 µM.
In the case of `O=C(Oc1ccccc1Cc1ccccc1)c1ccc2c(c1)S(=O)(=O)c1ccccc1C2=O`, the “TSA(with NAD+) / Primary screening (TSA) / delta Tm (K)” value worked out at 0.15 K.

For `Cc1nc(CN2CCN(CC(=O)N(C)Cc3cccs3)CC2)no1`, the “TSA(with NAD+) / Primary screening (TSA) / delta Tm (K)” value is reported as -0.06 K.

On to `COC(C)C(O)C(=O)O` (centres unmarked), for which the “TSA(with NAD+) / Primary screening (TSA) / delta Tm (K)” value was -0.09 K.

Take `CCOc1ccc(-n2c(SCC(=O)c3[nH]c(C)c(C(C)=O)c3C)nc3ccccc3c2=O)cc1`: the “TSA(with NAD+) / Primary screening (TSA) / delta Tm (K)” value is 0.01 K.

For the compound `COc1ccc(NC(=O)c2cccc(OCc3c(C)noc3C)c2)cc1OCc1cn2ccccc2n1`, the “TSA(with NAD+) / Primary screening (TSA) / delta Tm (K)” value worked out at 0.03 K.

For the compound `Cc1ccc(Nc2nnc(SCC(=O)Nc3cc(C)c(C)cc3[N+](=O)[O-])s2)cc1`, the “TSA(with NAD+) / Primary screening (TSA) / delta Tm (K)” value is 0.11 K.

For the compound `O=C(CCc1ccccc1)NC1CCN(c2ccc([N+](=O)[O-])c3cccnc23)CC1`, the “TSA(with NAD+) / Primary screening (TSA) / delta Tm (K)” value is reported as -0.21 K.

`CCN(CC)CCNC(=O)c1ccc(NC(=O)CC2CCCC2)cc1`: the “TSA(with NAD+) / Primary screening (TSA) / delta Tm (K)” value turned out to be 0.01 K.

For `CC(C)Cn1c(SCC(=O)Nc2sc3c(c2C(N)=O)CCC3)nnc1N1CCOCC1`, the “TSA(with NAD+) / Primary screening (TSA) / delta Tm (K)” value is listed as -0.18 K.

Consider `CCOc1ccc(C2C(C(=O)c3ccc(F)cc3)=C(O)C(=O)N2CCCN2CCOCC2)cc1OC` (centres unmarked), for which the “TSA(with NAD+) / Primary screening (TSA) / delta Tm (K)” value is listed as 0.02 K.

Take `CC(=O)NC1CCCN(c2c(C)c(C)nc3ccccc23)C1` (centres unmarked): the “TSA(with NAD+) / Primary screening (TSA) / delta Tm (K)” value is given as -0.01 K.

Regarding `CNC1CCc2[nH]c3ccc(Cl)cc3c2C1` (centres unmarked), the “TSA(with NAD+) / Primary screening (TSA) / delta Tm (K)” value is -0.01 K.

As to `COc1cc(NC(C)C(=O)Nc2ccc(C(N)=O)cc2)cc(OC)c1OC` (centres unmarked), the “TSA(with NAD+) / Primary screening (TSA) / delta Tm (K)” value is -0.15 K.

For `CCc1ccc(CNC(=O)Nc2ccncc2C)cc1`, the “TSA(with NAD+) / Primary screening (TSA) / delta Tm (K)” value is -0.11 K.

As for `CN(c1ccccc1)S(=O)(=O)c1ccc(C(=O)Nc2cccc(S(=O)(=O)N3CCOCC3)c2)cc1`, the “TSA(with NAD+) / Primary screening (TSA) / delta Tm (K)” value is -0.01 K.

Consider `CCc1ccc(OCC(=O)NNC(=O)Cc2ccc(OC)cc2)cc1`, for which the “TSA(with NAD+) / Primary screening (TSA) / delta Tm (K)” value was determined as 0.16 K.

Take `O=C(Cc1c[nH]c2ccccc12)Nc1ccc(N2CCN(Cc3ccccc3)CC2)cc1`: the “TSA(with NAD+) / Primary screening (TSA) / delta Tm (K)” value is -0.23 K.

As for `CN1CCN(CCc2cccc(NC(=O)C3CC3c3ccc4ccccc4c3)c2)CC1` (centres unmarked), the “TSA(with NAD+) / Primary screening (TSA) / delta Tm (K)” value is given as -0.03 K.

As to `COc1ccc(N2CCN(c3ncnc4sc5c(c34)CCC5)CC2)cc1`, the “TSA(with NAD+) / Primary screening (TSA) / delta Tm (K)” value is reported as -0.19 K.

Turning to `c1ccc(-c2nc(CSc3nnc(NCc4ccco4)s3)cs2)nc1`, the “TSA(with NAD+) / Primary screening (TSA) / delta Tm (K)” value was -0.03 K.

In the case of `COc1cc(CN(C)C(=O)c2cccc(S(=O)(=O)N3CCCC3)c2)ccc1OCc1ccccc1`, the “TSA(with NAD+) / Primary screening (TSA) / delta Tm (K)” value is given as -0.26 K.

For `Cc1ccc(C(=O)Nc2ccc(NC(=O)NCC3CCCO3)cc2)cn1` (centres unmarked), the “TSA(with NAD+) / Primary screening (TSA) / delta Tm (K)” value was found to be 0.55 K.

Turning to `O=C1/C(=C/c2ccc(Br)cc2)Oc2cc(O)ccc21`, the “TSA(with NAD+) / Primary screening (TSA) / delta Tm (K)” value came to 0.27 K.

Consider `COc1cccc(/C=C2/COc3ccc(Br)cc3C2=O)c1OC(F)F`, for which the “TSA(with NAD+) / Primary screening (TSA) / delta Tm (K)” value is recorded as 0.25 K.

`O=C(CCc1c[nH]c2ccccc12)Nc1ccc2nc[nH]c(=O)c2c1`: the “TSA(with NAD+) / Primary screening (TSA) / delta Tm (K)” value turned out to be 0.27 K.

For the compound `COc1ccc(N(C)S(=O)(=O)c2cccc(C(=O)Nc3ccccc3-c3ccccc3)c2)cc1`, the “TSA(with NAD+) / Primary screening (TSA) / delta Tm (K)” value was found to be 0.17 K.

Consider `CCOC(=O)C(C)N` (centres unmarked), for which the “TSA(with NAD+) / Primary screening (TSA) / delta Tm (K)” value is given as -0.21 K.

As to `Cc1cc(=O)oc2cc(OCC(=O)N3CCc4ccccc4C3)ccc12`, the “TSA(with NAD+) / Primary screening (TSA) / delta Tm (K)” value is listed as -0.12 K.

`NC(=O)Cn1nc(-n2cncn2)ccc1=O`: the “TSA(with NAD+) / Primary screening (TSA) / delta Tm (K)” value is given as -0.22 K.

Turning to `NC(=S)c1ccc(C(=O)NC2CCCc3cc(OC(F)F)ccc32)cc1` (centres unmarked), the “TSA(with NAD+) / Primary screening (TSA) / delta Tm (K)” value is on record as -0.03 K.

As for `O=C(Cn1cnc2sc3c(c2c1=O)CCCCC3)N1CCc2ccccc21`, the “TSA(with NAD+) / Primary screening (TSA) / delta Tm (K)” value is on record as 0.08 K.

Turning to `N#C/C(=C\c1[nH]c2ccccc2c1Cl)C(N)=O`, the “TSA(with NAD+) / Primary screening (TSA) / delta Tm (K)” value was -0.09 K.

For `O=C(Nc1ccc2c(c1)OC1(CCCC1)O2)c1cc(O)nc2ccccc12`, the “TSA(with NAD+) / Primary screening (TSA) / delta Tm (K)” value is given as -0.03 K.

For the compound `CCNC(=O)CSc1nnc(-c2c[nH]c3ccccc23)n1Cc1ccco1`, the “TSA(with NAD+) / Primary screening (TSA) / delta Tm (K)” value is given as -0.21 K.

Regarding `CC(C)Cn1c(SC(C)C(=O)Nc2sc3c(c2C(N)=O)CCC3)nnc1N1CCOCC1` (centres unmarked), the “TSA(with NAD+) / Primary screening (TSA) / delta Tm (K)” value is 0.09 K.

Turning to `CC(NC(=O)c1ccc2c(c1)C(=O)c1ccccc1-2)C1CC2CCC1C2` (centres unmarked), the “TSA(with NAD+) / Primary screening (TSA) / delta Tm (K)” value was -0.06 K.

In the case of `COc1ccc(S(=O)(=O)N2CCOCC2)cc1NC(=O)c1ccccc1SCC(=O)NC12CC3CC(CC(C3)C1)C2`, the “TSA(with NAD+) / Primary screening (TSA) / delta Tm (K)” value is given as -0.05 K.

As to `Cc1cc(C)cc(C(=O)Nc2cccc(S(=O)(=O)N3CCCCCC3)c2)c1`, the “TSA(with NAD+) / Primary screening (TSA) / delta Tm (K)” value is listed as 0.15 K.

For `CN(C)C(=O)CCNc1ncnc2ccsc12`, the “TSA(with NAD+) / Primary screening (TSA) / delta Tm (K)” value is -0.16 K.

Turning to `CN(Cc1nc2ccccc2s1)C(=O)CSc1nnc(C2COc3ccccc3O2)o1` (centres unmarked), the “TSA(with NAD+) / Primary screening (TSA) / delta Tm (K)” value was -0.16 K.

Regarding `CN(c1cccnc1)S(=O)(=O)c1cccc(-n2cnnn2)c1`, the “TSA(with NAD+) / Primary screening (TSA) / delta Tm (K)” value is 0.05 K.

Take `Cc1ccc(C23CC4CC(CC(C(=O)OCC(=O)Nc5ccc(S(N)(=O)=O)cc5)(C4)C2)C3)cc1`: the “TSA(with NAD+) / Primary screening (TSA) / delta Tm (K)” value is listed as 0.29 K.

Turning to `O=C1CCC(=O)N(c2ccc(C(=O)NC34CC5CC(CC(C5)C3)C4)cc2)N1`, the “TSA(with NAD+) / Primary screening (TSA) / delta Tm (K)” value is 0.11 K.

For `COc1ccc(CCSc2nc3ccsc3c(=O)n2C)cc1`, the “TSA(with NAD+) / Primary screening (TSA) / delta Tm (K)” value is -0.03 K.

For `COc1ccc(-c2noc(CN3CCN(c4ncnc5scc(-c6ccccc6)c45)CC3)n2)cc1`, the “TSA(with NAD+) / Primary screening (TSA) / delta Tm (K)” value is given as -0.16 K.

As for `c1nc(N2CCN(Cc3csc(-c4ccsc4)n3)CC2)c2c3c(sc2n1)CCCC3`, the “TSA(with NAD+) / Primary screening (TSA) / delta Tm (K)” value is on record as 0.05 K.

Take `COc1ccc(N(C)S(=O)(=O)c2cccc(C(=O)Nc3cccc(Br)c3)c2)cc1`: the “TSA(with NAD+) / Primary screening (TSA) / delta Tm (K)” value was found to be 0.32 K.
